We go through 54 compounds from PubChem BioAssay AID1487 (National Center for Advancing Translational Sciences (NCATS), 2009).

This experiment can be described thus: qHTS Assay for Modulators of Lamin A Splicing. The conditions noted are these: HeLa LMNA splicing GFP/RFP minigene ratio, 48 h. The gist of the method:
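Read-out is the ratio of GFP to DsRed2 object intensity, acquired by 488 nm laser-scanning cytometry on HeLa lamin A-EGFP minigene reporter cells. Compound incubation 48 hrs at 37 °C in Opti-MEM with 2% FBS; DMSO 0.5% final.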
Background: qHTS replaces the single test concentration by a dilution series.

Where [1] appears, read: measured here: GFP splicing reporter channel.
Setting [2] is: measured here: RFP viability control channel.

One may read the AC50 as the concentration giving half of the maximal activity seen.

Some of the results follow. The main result of the screen is listed elsewhere. These columns were measured beside it and carry no call. Most of these compounds were active or inconclusive in the main read-out, so they are no random draw. Words in brackets tell the shape of the fitted curve; partial curves, single points and poor fits give uncertain potencies.

With `CN(C)CCCN(C(=O)CCc1ccccc1)c1nc2ccc(Br)cc2s1`, the AC50 under setting [1] was 1.26 µM [rising, single point] and the AC50 under setting [2] was 1.26 µM [rising, single point]. As to `O=C(c1cccc(Cl)c1)N1CCC(=O)N(C(COCc2cccc(Cl)c2)Cc2ccccc2)CC1` (stereo unspecified), the AC50 under setting [1] is 10 µM [rising, partial curve, poor fit] and the AC50 under setting [2] was 14.1 µM [rising, partial curve].

Consider `CCOC(=O)C(C)n1nc(/C=C/c2ccc(OC)cc2)ccc1=O` (stereo unspecified), for which, under setting [1], the half-maximal activity concentration (AC50) is 12.6 µM [falling, partial curve]. As for `Cc1ccccc1Cn1nc(C)c(NC(=O)c2cc3nc(-c4ccco4)cc(C(F)(F)F)n3n2)c1C`, the AC50 under setting [1] was 10 µM [rising, partial curve] and the AC50 under setting [2] is 10 µM [rising, partial curve].

For `Cc1cccc(N2CCN(C(=O)C(NS(=O)(=O)c3cccs3)c3ccccc3)CC2)c1C` (stereo unspecified), the AC50 by setting is: under setting [1], 14.1 µM [rising, single point]; under setting [2], 17.8 µM [rising, single point]. Regarding `O=[N+]([O-])c1cccc(S(=O)(=O)N/N=C/c2ccc(O)cc2)c1`, the AC50 under setting [1] is 0.0794 µM [rising, full curve, poor fit]. With `Cc1ccc(NC(=O)NC(=O)CSc2nnnn2C)c(C)c1`, the AC50 under setting [2] was 2.24 µM [rising, partial curve, poor fit]. For `CCOC(=O)c1sc2nc(CC(=O)OC)nc(N3CCN(c4ccc(OC)cc4)CC3)c2c1C`, the AC50 under setting [2] is 15.8 µM [rising, single point]. Regarding `COc1ccc(C/C(N)=N/OC(=O)c2cccc([N+](=O)[O-])c2)cc1`, under setting [2], the AC50 is 0.0891 µM [falling, full curve, poor fit]. On to `O=C(Nc1ccc(Oc2ccccc2)cc1)c1ccc(F)c(S(=O)(=O)N2CCN(c3ccccc3F)CC2)c1`, for which the half-maximal activity concentration (AC50) under setting [1] is 3.55 µM [falling, partial curve, poor fit] and the AC50 under setting [2] was 5.62 µM [falling, full curve, poor fit]. Consider `O=[N+]([O-])c1ccc(-c2nc(-c3cccs3)c(-c3cccs3)[nH]2)cc1`, for which the AC50 is 35.5 µM [falling, single point] under setting [1] and 35.5 µM [falling, single point] under setting [2]. For `Cc1ccc(-c2nc(CSCC(=O)N3CCOCC3)c(C)o2)cc1`, the half-maximal activity concentration (AC50) under setting [1] was 20 µM [rising, partial curve] and the AC50 under setting [2] is 15.8 µM [rising, partial curve].

In the case of `CN(c1ccccc1)S(=O)(=O)c1cccc(NC(=O)Nc2ccc(Cl)cc2C#N)c1`, the AC50 under setting [1] is 35.5 µM [rising, single point].

As for `CCc1ccc2ncc(S(=O)(=O)c3ccc(C)c(C)c3)c(N3CCCC3)c2c1`, the AC50 under setting [2] was 12.6 µM [rising, single point]. On to `Cc1csc(OCC(=O)Nc2ccc(C)c(C)c2)n1`, for which the half-maximal activity concentration (AC50) under setting [1] is 11.2 µM [rising, partial curve, poor fit]. `COc1cccc(-c2csc(N3CCN(C(=O)NC45CC6CC(CC(C6)C4)C5)CC3)n2)c1`: the AC50 reads like this: under setting [1], 20 µM [rising, single point]; under setting [2], 22.4 µM [rising, partial curve]. Consider `O=C(c1cccs1)N1CCC(c2nc(-c3ccc(S(=O)(=O)N4CCOCC4)cc3)no2)CC1`, for which the AC50 under setting [2] was 22.4 µM [rising, single point]. For the compound `CC1(C)OC(=O)C(=CNCCc2ccc(O)cc2)C(=O)O1`, under setting [2], the AC50 is 35.5 µM [rising, single point]. As to `Cc1ccccc1NCc1ccc(O)c2ncccc12`, the AC50 runs as follows: under setting [1], 35.5 µM [rising, single point]; under setting [2], 35.5 µM [rising, single point]. On to `CC(C)(C)NC(=O)CSc1nc(-c2ccccc2)cc(=O)[nH]1`, for which the AC50 under setting [1] is 0.00794 µM [rising, full curve, poor fit]. For the compound `Cc1cc(NS(=O)(=O)c2cn(C)c(C)n2)ccc1Br`, the AC50 under setting [1] was 3.98 µM [rising, partial curve] and the AC50 under setting [2] is 5.01 µM [rising, partial curve]. Turning to `Cn1c(SCC(=O)c2ccc(F)cc2)nnc1-c1ccccc1N`, the AC50 is 10 µM [rising, partial curve] under setting [1] and 12.6 µM [rising, partial curve] under setting [2]. In the case of `O/N=C/c1cn(-c2ccccc2)nc1-c1ccc2c(c1)OCCO2`, the AC50 was 11.2 µM [falling, partial curve] under setting [1] and 22.4 µM [falling, partial curve] under setting [2]. Regarding `CCc1ccccc1NC(=O)C1CCN(c2nc3ccccc3[nH]2)CC1`, under setting [1], the AC50 is 0.794 µM [rising, full curve, poor fit]. Turning to `COc1cccc(-c2nc(NCc3cccs3)c3ccccc3n2)c1`, the half-maximal activity concentration (AC50) is 12.6 µM [falling, partial curve] under setting [1] and 12.6 µM [falling, partial curve] under setting [2].

Regarding `O=c1ccc2ccc(O)c(O)c2o1`, under setting [1], the AC50 was 7.94 µM [falling, partial curve, poor fit]. In the case of `COc1ccc(-c2nn(-c3ccccc3)cc2/C=C\C(=O)Nc2ccc(C(=O)O)cc2)cc1`, the AC50 under setting [2] was 25.1 µM [falling, partial curve]. With `CC1(OC(=O)C2CCCC2)C(=O)C=C2C=C(c3ccsc3)N(CCc3ccccn3)C=C2C1=O` (stereo unspecified), the AC50 under setting [2] is 0.0178 µM [falling, single point]. Take `O=C1C=CC(=O)C(C2=C3C(=O)N(CCc4ccccc4)CC(=O)N3CCC2)=C1`: the AC50 was 7.08 µM [rising, partial curve, poor fit] under setting [1] and 6.31 µM [falling, partial curve] under setting [2]. With `COC(=O)c1c(NC(=O)c2ccccc2)sc(C(=O)c2ccccc2)c1C`, the AC50 was 17.8 µM [falling, single point] under setting [1] and 35.5 µM [falling, single point] under setting [2].

Turning to `C[C@]12C=CC(=O)C=C1CCC1C3CC[C@](O)(C(=O)CO)[C@@]3(C)CC3OC312` (stereo partly specified), the AC50 under setting [1] is 0.00708 µM [falling, full curve, poor fit]. As for `O=C(Nc1cc(-c2ccc(F)c(F)c2)no1)c1ccccc1F`, the AC50 under setting [2] is 4.47e-05 µM [falling, full curve].

As for `O=c1c2c(C(F)(F)F)cc(C(F)(F)F)nc2[nH]n1-c1ccccc1`, the AC50 under setting [2] was 35.5 µM [rising, single point]. In the case of `Cc1cccc(Cn2c(SCc3ccc(C(=O)NCc4cccs4)cc3)nc3cccnc32)c1`, the AC50 reads like this: under setting [1], 10 µM [falling, partial curve]; under setting [2], 10 µM [falling, partial curve]. For the compound `C/C(=N\O)c1ccc2c3c([nH]c2c1)CCCC3`, under setting [2], the AC50 is 4.47 µM [falling, full curve]. `CCc1c(C(=O)NNC(=S)NCC(C)C)csc1C`: the AC50 under setting [2] is 35.5 µM [rising, single point]. Take `CC(C)c1ccc(NC(=O)c2cc(S(=O)(=O)NC3CCCCC3)ccc2F)cc1`: the AC50 is 15.8 µM [falling, single point] under setting [1] and 31.6 µM [falling, partial curve, poor fit] under setting [2]. In the case of `COc1ccccc1-c1ccc2ncnc(N(C)C)c2c1`, the AC50 under setting [1] is 11.2 µM [falling, partial curve] and the AC50 under setting [2] was 3.98 µM [falling, full curve, poor fit]. With `Cc1ccc2[nH]c(CSc3nnc(C)s3)cc(=O)c2c1`, the AC50 under setting [1] was 0.447 µM [rising, full curve, poor fit]. On to `Cc1ccc(NC(=O)NC(=O)CN2C(=O)NC3(CCCCCCC3)C2=O)c(C)c1`, for which, under setting [2], the AC50 was 20 µM [rising, single point]. Regarding `COc1ccc(-c2cc(C(F)(F)F)nc(NCc3cccs3)n2)cc1`, the concentration at half-maximal activity (AC50) was 31.6 µM [rising, single point] under setting [1] and 35.5 µM [rising, single point] under setting [2].

On to `Oc1ccccc1-c1nc(/C=C/c2ccccc2)nn1-c1ccccc1`, for which the AC50 under setting [1] was 15.8 µM [rising, partial curve] and the AC50 under setting [2] was 22.4 µM [rising, partial curve]. As for `CC(NC(=O)/C=C/c1cnc2ccccc2n1)C12CC3CC(CC(C3)C1)C2` (stereo unspecified), the AC50 under setting [2] is 14.1 µM [rising, partial curve]. On the same count and under the same terms, the value for `C=CCn1c(C)cc(C(=O)CSc2nc3ccccc3c(=O)[nH]2)c1C` was 4.47 µM [rising, full curve, poor fit]; that for `CCN1CCn2c3c(c4cc(Cl)ccc42)CCCC31` (stereo unspecified) was 11.2 µM [rising, partial curve]. In the case of `O=C(CN1C(=O)COc2ccc(S(=O)(=O)N3CCCC3)cc21)NCCc1ccc(Cl)cc1`, the half-maximal activity concentration (AC50) is 3.16 µM [rising, partial curve, poor fit] under setting [1] and 3.55 µM [rising, partial curve, poor fit] under setting [2].

On to `Cc1ccccc1NC(=O)c1onc2c1CCCC2`, for which the concentration at half-maximal activity (AC50) under setting [2] is 0.631 µM [falling, full curve].

`Cc1cccc(C(=O)N2CCN(c3ncnc4c3cnn4-c3ccccc3)CC2)c1`: the AC50 under setting [2] is 14.1 µM [rising, partial curve]. On to `Cc1c(C(=O)N2CCCC2)sc(NC(=O)c2ccc(Cl)cc2)c1C#N`, for which the AC50 under setting [2] was 14.1 µM [rising, single point].

Consider `COc1cc(OC)c(C(=O)CCCN2CCCC2)c(OC)c1`, for which the AC50 under setting [2] is 0.316 µM [falling, partial curve].

For the compound `CCOc1cc(CN2CCN(c3cccc(C(F)(F)F)c3)CC2)ccc1O`, the AC50 under setting [2] was 31.6 µM [rising, single point]. For `O=[N+]([O-])c1ccc(Nc2ccccc2F)nc1`, under setting [1], the AC50 is 10 µM [rising, single point].

With `COc1ccc(/C=N/OCC(=O)NC(c2ccccc2)c2ccccc2)c(OC)c1`, the AC50 by setting is: under setting [1], 10 µM [rising, partial curve]; under setting [2], 14.1 µM [rising, single point].

For `COc1ccc(-c2csc(NC(=O)c3ccc(OCC(=O)N4CCOCC4)c(OC)c3)n2)cc1`, the AC50 under setting [2] is 14.1 µM [rising, single point].
